Assay results published in patent US20030170643A1, “Regulation of apoB treatment and drug screening for cardiovascular and metabolic disorders or syndromes” (priority 1999, published 2003).
For at least one compound, name, drawing or mass did not settle the structure.

Experiments:
rat primary hepatocytes = assay: Secretion of newly synthesized ([35S]methionine-labeled) VLDL-apoproteins by rat primary hepatocytes incubated with fatty acid/BSA complexes; assay type: cell-based; details: for apoE recovery by immunoprecipitation from whole media samples: FIG. 4B; for signal intensities of labeled apoB100, apoB48, apoE and apoCs secreted on VLDL particles: fluorogram, FIG. 4A
Procedure: Cells were plated at a density of 2×10^6 cells/ml on 60-mm culture dishes (previously coated with poly-D-lysine) in modified M199 medium (M199, 1% fetal bovine serum [FBS], 1 mM nicotinamide, 0.1 nM insulin, 3 mg/ml choline, 1.1% L-glutamine, 1% BSA). After a four-hour attachment period, the medium was changed (modified M199 identical to the above except BSA was omitted and the concentration of FBS was raised to 10%). The next morning, cells were washed in serum-free medium three times, the experimental media added, and the cells incubated at 37° C. for 4-6 hours. The experimental medium consisted of serum-free RPMI containing the appropriate isotopes (see below) and fatty acids (FA) present at a final concentration of 0.8 mM complexed to BSA (FA:BSA molar ratio=5:1). The fatty acids used were oleic (OA), EPA, and DHA. Control medium was identical, except that BSA (0.16 mM) without fatty acids was present. For metabolic labeling of proteins, [^35S]methionine (70 uCi/ml) was included in the experimental media.
Following the 4-6 hour incubation period, the cell monolayer was washed, then solubilized in 0.1 M NaOH, and the cell protein determined by the Lowry method (Lowry, O. H., Rosebrough, N. J., Farr, A. L., and Randall, R. J. (1951) J Biol Chem 193, 265-75). Each 60 mm dish contained approximately 1-1.5 mg of cell protein. The secreted apoproteins were isolated from the medium either by ultracentrifugation or immunoprecipitation. To isolate the d<1.006 (VLDL) and 1.006<d<1.063 (IDL and LDL) g/ml density classes by centrifugation, sequential 20 hour runs at 48,000 rpm in a 50 Ti Beckman rotor at 4° C. were performed. After the first run at d=1.006, the upper VLDL layer was harvested and the density of the infranatant adjusted to 1.066 g/ml with solid KBr. After being overlaid with a KBr solution of density 1.063, the adjusted infranatant was re-centrifuged as before to isolate the IDL and LDL fractions. In some experiments, the HDL fraction (1.063<d<1.21) was isolated by sequential density centrifugation. Lipoprotein fractions were then dialyzed against 0.9% NaCl containing 10 mM unlabeled methionine, 0.2 mM PMSF, and 2 mM EDTA. Dialyzed lipoproteins were delipidated using 9 volumes of 100% isopropanol. Apoproteins were then collected by centrifugation in a Sorval HB-4 rotor at 10,000 rpm and 4° C. for 20 min, and dissolved in buffer (0.01 M phosphate, pH 7,1 % SDS, 10% glycerol), in preparation for electrophoresis.
To immunoprecipitate apoB or apoE from unfractionated conditioned medium, monospecific rabbit antiserum to rat apoB or apoE was used. Briefly, an aliquot of the medium was mixed with an equal volume of diluted antiserum (1:100 in PBS and 1% BSA) and incubated overnight at 4° C. […] An aliquot of each sample was taken for scintillation counting, so that total radioactivity applied to each lane could be determined. […]
After electrophoresis, the gels were stained, fixed, soaked in Enhance fluor solution, and dried following protocols supplied by the manufacturer. Dried gels were then exposed to X-ray film at −70° C. and signals on the resulting fluorograms were typically quantified by densitometry or phosphorimaging. Using the total radioactivity applied to each lane of the gel and the relative signal intensity of each band in that lane, the radioactivity associated with each apoprotein species was calculated. […]

purified bovine MTP = molecular target: T1, purified bovine MTP (Bos taurus, UniProt P55156); assay: MTP-mediated transfer of labeled triolein or POPC from donor vesicles containing Ω-3 phosphatidylcholine; assay type: biochemical; details: 0%-30% DHA or EPA groups at sn-2 position of donor vesicle phosphatidylcholine
T1 sequence (P55156 12-887): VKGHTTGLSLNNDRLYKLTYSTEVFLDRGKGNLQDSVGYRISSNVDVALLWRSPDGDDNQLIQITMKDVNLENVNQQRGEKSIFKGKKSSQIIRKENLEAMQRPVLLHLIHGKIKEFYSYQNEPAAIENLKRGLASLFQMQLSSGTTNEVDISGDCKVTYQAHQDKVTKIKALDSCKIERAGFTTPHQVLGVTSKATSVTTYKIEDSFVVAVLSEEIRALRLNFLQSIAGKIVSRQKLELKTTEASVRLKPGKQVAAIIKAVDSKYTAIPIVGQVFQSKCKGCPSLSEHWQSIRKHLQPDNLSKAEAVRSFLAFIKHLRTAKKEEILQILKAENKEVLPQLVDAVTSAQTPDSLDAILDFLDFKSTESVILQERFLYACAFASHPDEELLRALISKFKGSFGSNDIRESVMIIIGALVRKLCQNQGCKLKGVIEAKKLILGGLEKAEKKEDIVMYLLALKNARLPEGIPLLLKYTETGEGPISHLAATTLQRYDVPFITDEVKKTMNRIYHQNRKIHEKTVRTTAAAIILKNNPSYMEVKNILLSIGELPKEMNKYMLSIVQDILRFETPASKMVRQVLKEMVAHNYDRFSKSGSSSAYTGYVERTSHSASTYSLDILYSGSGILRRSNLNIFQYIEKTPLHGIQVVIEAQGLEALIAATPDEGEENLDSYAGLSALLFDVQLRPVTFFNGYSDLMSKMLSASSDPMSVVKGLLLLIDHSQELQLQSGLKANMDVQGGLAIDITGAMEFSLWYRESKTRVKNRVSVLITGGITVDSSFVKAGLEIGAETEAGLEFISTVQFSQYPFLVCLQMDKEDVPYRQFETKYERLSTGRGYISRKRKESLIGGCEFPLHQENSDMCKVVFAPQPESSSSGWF
T1 sequence (P05307 21-510 partner): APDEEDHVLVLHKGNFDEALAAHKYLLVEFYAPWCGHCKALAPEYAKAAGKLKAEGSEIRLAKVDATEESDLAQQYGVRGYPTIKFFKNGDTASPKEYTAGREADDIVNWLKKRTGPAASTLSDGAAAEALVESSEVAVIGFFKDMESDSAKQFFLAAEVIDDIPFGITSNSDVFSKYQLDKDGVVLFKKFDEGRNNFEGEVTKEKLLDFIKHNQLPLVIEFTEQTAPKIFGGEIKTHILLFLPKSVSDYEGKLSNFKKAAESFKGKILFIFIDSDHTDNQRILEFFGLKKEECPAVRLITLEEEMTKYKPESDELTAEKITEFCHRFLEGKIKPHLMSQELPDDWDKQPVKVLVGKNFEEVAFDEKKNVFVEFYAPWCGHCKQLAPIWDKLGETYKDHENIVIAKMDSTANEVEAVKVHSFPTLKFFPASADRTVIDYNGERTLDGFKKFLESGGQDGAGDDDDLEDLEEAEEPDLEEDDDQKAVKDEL

In the case of `CC/C=C\C/C=C\C/C=C\C/C=C\C/C=C\CCCC(=O)O` [EPA, eicosapentaenoic acid], the “apoE recovery by immunoprecipitation from whole media samples” value (rat primary hepatocytes) is reported as “significant decrease”, the “signal intensities of labeled apoB100, apoB48, apoE and apoCs secreted on VLDL particles” value (rat primary hepatocytes) is reported as “substantial decreases” and the “effect on MTP-mediated transfer of labeled triolein or labeled POPC” value (purified bovine MTP) is reported as “no significant effects”.
With `CC/C=C\C/C=C\C/C=C\C/C=C\C/C=C\C/C=C\CCC(=O)O` [DHA, docosahexaenoic acid] the “recovery of labeled apoB48 from the HDL fraction” value (rat primary hepatocytes; 4 hr, DHA vs OA) was “essentially independent of treatment”, the “apoE recovery by immunoprecipitation from whole media samples” value (rat primary hepatocytes) was “significant decrease” and the “signal intensities of labeled apoB100, apoB48, apoE and apoCs secreted on VLDL particles” value (rat primary hepatocytes) was “substantial decreases”. The “effect on MTP-mediated transfer of labeled triolein or labeled POPC” value (purified bovine MTP) was “no significant effects”.
